Values as published with doi:10.1371/journal.pone.0140310, rounded.

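The test systems are human melanoma cell lines, treated with two drugs together for 72 h and then stained and imaged. Each value is the count of nuclei relative to DMSO-treated wells, in %, so that 100 equals the control. Every drug was used at one fixed concentration, the lower of two screened (a fifth of the higher). These are primary screening values without error estimates.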
This is part of the screen, not chosen by result.

Drugs:
nutlin-3 (0.1 µM): COc1ccc(C2=N[C@@H](c3ccc(Cl)cc3)[C@@H](c3ccc(Cl)cc3)N2C(=O)N2CCNC(=O)C2)c(OC(C)C)c1
VX-702 (0.4 µM): NC(=O)c1ccc(N(C(N)=O)c2c(F)cccc2F)nc1-c1ccc(F)cc1F
everolimus (0.02 µM): CO[C@H]1C[C@@H]2CC[C@@H](C)[C@@](O)(O2)C(=O)C(=O)N2CCCC[C@H]2C(=O)O[C@H]([C@H](C)C[C@@H]2CC[C@@H](OCCO)[C@H](OC)C2)CC(=O)[C@H](C)/C=C(\C)[C@@H](O)[C@@H](OC)C(=O)[C@H](C)C[C@H](C)/C=C/C=C/C=C/1C
FH535 (1 µM): Cc1cc([N+](=O)[O-])ccc1NS(=O)(=O)c1cc(Cl)ccc1Cl
vatalanib (2 µM): Clc1ccc(Nc2nnc(Cc3ccncc3)c3ccccc23)cc1
etoposide (0.02 µM): COc1cc([C@@H]2c3cc4c(cc3[C@@H](O[C@@H]3O[C@@H]5CO[C@@H](C)O[C@H]5[C@H](O)[C@H]3O)[C@H]3COC(=O)[C@H]23)OCO4)cc(OC)c1O
bortezomib (0.001 µM): CC(C)C[C@H](NC(=O)[C@H](Cc1ccccc1)NC(=O)c1cnccn1)B(O)O
decitabine (0.1 µM): Nc1ncn([C@H]2C[C@H](O)[C@@H](CO)O2)c(=O)n1
NVP-BEZ235 (0.004 µM): Cn1c(=O)n(-c2ccc(C(C)(C)C#N)cc2)c2c3cc(-c4cnc5ccccc5c4)ccc3ncc21
STA-4783 (0.006 µM): CN(NC(=O)CC(=O)NN(C)C(=S)c1ccccc1)C(=S)c1ccccc1

| # | Combination | MEL-HO | A2058 | COLO 829 | COLO 792 | G-361 | IPC-298 |
|---|---|---|---|---|---|---|---|
| 1 | NVP-BEZ235 + etoposide | 97.9 | 97.5 | 75.0 | 101 | 87.7 | 86.5 |
| 2 | NVP-BEZ235 + bortezomib | 93.4 | 83.5 | 75.7 | 84.8 | 11.6 | 79.5 |
| 3 | everolimus + STA-4783 | 72.2 | 61.8 | 76.2 | 48.3 | 67.2 | 74.5 |
| 4 | decitabine + STA-4783 | 80.9 | 81.4 | 78.6 | 88.4 | 95.2 | 63.1 |
| 5 | decitabine + vatalanib | 77.3 | 77.1 | 82.2 | 85.7 | 87.5 | 67.2 |
| 6 | etoposide + bortezomib | 96.7 | 79.2 | 58.3 | 100 | 7.0 | 70.2 |
| 7 | nutlin-3 + NVP-BEZ235 | 99.2 | 108 | 80.1 | 87.8 | 100 | 94.1 |
| 8 | decitabine + nutlin-3 | 79.2 | 92.9 | 64.0 | 94.9 | 82.0 | 68.2 |
| 9 | everolimus + FH535 | 68.4 | 69.6 | 59.8 | 48.5 | 68.9 | 75.5 |
| 10 | everolimus + etoposide | 78.9 | 71.3 | 70.7 | 54.5 | 77.1 | 67.5 |
| 11 | everolimus + bortezomib | 65.4 | 57.1 | 47.4 | 47.0 | 4.2 | 49.6 |
| 12 | etoposide + vatalanib | 103 | 73.8 | 84.9 | 89.6 | 109 | 100 |
| 13 | vatalanib + bortezomib | 88.4 | 75.3 | 56.1 | 91.7 | 3.0 | 75.1 |
| 14 | VX-702 + vatalanib | 96.2 | 98.0 | 77.0 | 87.8 | 90.1 | 91.9 |
| 15 | VX-702 + everolimus | 68.1 | 81.4 | 73.5 | 61.1 | 63.8 | 73.8 |
| 16 | FH535 + NVP-BEZ235 | 85.7 | 76.9 | 101 | 85.6 | 84.3 | 94.6 |
| 17 | VX-702 + FH535 | 87.5 | 99.1 | 91.4 | 97.4 | 86.5 | 96.9 |
| 18 | decitabine + everolimus | 68.1 | 73.4 | 76.4 | 58.9 | 61.9 | 56.2 |
| 19 | bortezomib + decitabine | 78.9 | 81.9 | 52.1 | 90.4 | 5.1 | 55.1 |
| 20 | FH535 + bortezomib | 84.7 | 71.4 | 55.2 | 87.0 | 10.5 | 68.6 |
| 21 | decitabine + etoposide | 89.8 | 91.5 | 80.3 | 90.1 | 94.5 | 64.1 |
| 22 | nutlin-3 + FH535 | 78.1 | 79.8 | 97.9 | 98.5 | 90.1 | 97.2 |
| 23 | decitabine + VX-702 | 92.4 | 90.5 | 69.0 | 88.2 | 91.0 | 72.1 |
| 24 | NVP-BEZ235 + STA-4783 | 83.9 | 68.7 | 77.7 | 66.6 | 82.6 | 101 |
| 25 | NVP-BEZ235 + VX-702 | 101 | 98.5 | 98.5 | 107 | 90.0 | 105 |
| 26 | nutlin-3 + STA-4783 | 83.1 | 87.6 | 55.6 | 59.4 | 71.2 | 91.0 |
| 27 | vatalanib + FH535 | 105 | 97.6 | 91.2 | 93.4 | 93.5 | 86.2 |
| 28 | everolimus + nutlin-3 | 72.0 | 66.6 | 59.8 | 57.4 | 58.2 | 71.3 |
| 29 | NVP-BEZ235 + vatalanib | 83.9 | 78.2 | 96.4 | 80.4 | 96.3 | 89.2 |
| 30 | nutlin-3 + etoposide | 94.7 | 90.7 | 93.4 | 119 | 104 | 95.9 |
| 31 | VX-702 + etoposide | 97.7 | 94.8 | 105 | 86.8 | 102 | 93.2 |
| 32 | nutlin-3 + vatalanib | 91.3 | 82.1 | 87.8 | 87.7 | 84.3 | 89.7 |
| 33 | bortezomib + VX-702 | 102 | 88.8 | 52.8 | 107 | 27.3 | 94.2 |
| 34 | decitabine + NVP-BEZ235 | 73.1 | 84.4 | 75.3 | 76.7 | 80.3 | 67.6 |
| 35 | vatalanib + everolimus | 63.9 | 64.2 | 84.1 | 41.3 | 47.1 | 72.3 |
| 36 | STA-4783 + FH535 | 87.3 | 68.4 | 57.7 | 45.3 | 77.0 | 81.0 |
| 37 | STA-4783 + vatalanib | 89.7 | 96.2 | 112 | 95.5 | 91.1 | 99.6 |

Some entries from above, unchanged:

| Combination | MEL-HO | A2058 | COLO 829 | COLO 792 | G-361 | IPC-298 |
|---|---|---|---|---|---|---|
| nutlin-3 + STA-4783 | 83.1 | 87.6 | 55.6 | 59.4 | 71.2 | 91.0 |
| NVP-BEZ235 + VX-702 | 101 | 98.5 | 98.5 | 107 | 90.0 | 105 |
| decitabine + STA-4783 | 80.9 | 81.4 | 78.6 | 88.4 | 95.2 | 63.1 |
| everolimus + nutlin-3 | 72.0 | 66.6 | 59.8 | 57.4 | 58.2 | 71.3 |